# Experimental data: publication PMC10633821 (RSC Advances, 2023)
# Assay: MTT assay, cytotoxicity on normal breast cells MCF-10A
# Type: cell-based
# Conditions: human, MCF-10A cells (normal breast cells)
smiles,measurement,value
"CN[C@@H]1C[C@H]2O[C@@](C)([C@@H]1OC)n1c3ccccc3c3c4c(c5c6ccccc6n2c5c31)C(=O)NC4 [staurosporine, reference compound]",IC50 at 48 h,26.7 ± 1.62 µM
